Measured values: US20210332360
For some assays here: A negative result means that nothing was seen under these conditions. For some assays here: Construct, isoform or probe ends are uncertain for at least one entry. For some assays here: Tags and fusion partners may be left off the protein sequences shown.

Sequences of proteins named here, by UniProt entry; tags and fusion partners are left off. Residues count along the entry.
UniProt P11226, 21-248: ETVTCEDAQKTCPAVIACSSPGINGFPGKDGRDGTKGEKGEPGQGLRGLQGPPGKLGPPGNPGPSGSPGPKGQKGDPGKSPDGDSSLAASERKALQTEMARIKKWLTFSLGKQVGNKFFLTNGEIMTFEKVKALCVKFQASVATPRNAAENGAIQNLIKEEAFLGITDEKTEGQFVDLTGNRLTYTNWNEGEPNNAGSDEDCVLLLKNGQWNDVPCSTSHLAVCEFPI

Experiments:
[1] = molecular target: T1, DC-SIGN (DC-SIGNR/CD299) (Homo sapiens) (UniProt Q9H2X3); test: MST; conditions: after the 5' primer region all dT replaced by 4 (alpha-D-mannose-triazole-modified C8-alkyne-dU); average of 20.4 and 22.7 nM; 25 C; D1 free in solution, 1 nM labeled DC-SIGNR; purified recombinant protein; label: particle-displayed, or 5'-biotinTEG in solution; single-stranded DNA
T1 sequence (looked up, limits assumed): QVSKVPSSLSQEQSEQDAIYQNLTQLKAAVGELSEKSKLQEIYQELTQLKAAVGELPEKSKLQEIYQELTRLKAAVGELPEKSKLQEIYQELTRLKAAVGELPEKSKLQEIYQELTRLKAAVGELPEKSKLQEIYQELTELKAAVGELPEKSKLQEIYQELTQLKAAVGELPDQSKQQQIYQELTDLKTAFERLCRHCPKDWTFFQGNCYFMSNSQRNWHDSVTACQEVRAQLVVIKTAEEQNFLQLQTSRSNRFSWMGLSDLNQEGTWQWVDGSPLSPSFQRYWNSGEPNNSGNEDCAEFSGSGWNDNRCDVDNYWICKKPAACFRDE

[2] = molecular target: Mannose-binding lectin (MBL) (Homo sapiens) (UniProt P11226); test: flow cytometry; conditions: after the 5' primer region all dT replaced by 4 (alpha-D-mannose-triazole-modified C8-alkyne-dU); essentially no binding from 0.1 to 100 nM; purified recombinant protein; protein details: ACROBiosystems, fluorescent label; label: particle-displayed, or 5'-biotinTEG in solution; single-stranded DNA

## GATCCCAGTCCGAAGTAATCCAAGGGTAATTGGGAAATAAGGATGGGGTAATATGCAACCCTTGTGCAAACGGCTATAGG [D1]
[1]
  Kd: 21.5 nM
[2]
  binding result: no binding
